Test results taken from patent US20050113317A1, “Combination of dehydroepiandrosterone or dehydroepiandrosterone-sulfate with a cromone for treatment of asthma or chronic obstructive pulmonary disease” (priority 2003, published 2005).

Assay: Aerosolization with single-dose Acu-Breathe device into Andersen cascade impactor (fine particle fraction)
Conditions: neat powder, 30 to 75 L/min

For `CC12CCC3C(CC=C4CC(OS(=O)(=O)[O-])CCC43C)C1CCC2=O.[Na+]` (stereo not shown) [DHEA-S Dihydrate], the “fine particle fraction versus virtually anhydrous material” value was “higher fine particle fraction than the virtually anhydrous material”.
